# Some of the results follow. Shown are side measurements of this screen, not its main read-out; they come without a call. The list favours compounds with an active or inconclusive main result. Words in brackets tell the shape of the fitted curve; partial curves, single points and poor fits give uncertain potencies.
# Experiment: qHTS Assay for Modulators of Lamin A Splicing
# Conditions: HeLa LMNA splicing GFP/RFP minigene ratio, 48 h
# Outline: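 S3 HeLa cells stably expressing lamin A-EGFP splicing minigene plus DsRed2, 600 cells/well, 48 h compound exposure at 37C. Laser-scanning cytometry; analysed as GFP (500-530 nm)/RFP (575-640 nm) total intensity ratio; 0.5% DMSO vehicle.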
# [1] = measured here: GFP splicing reporter channel
# [2] = measured here: RFP viability control channel
SMILES,AC50 [1],AC50 [2]
CC1CC1C(=O)Nc1nc(-c2ccccc2)cs1 (configuration not stated),"15.8 µM [rising, single point]","14.1 µM [rising, single point]"
CC(=O)NC(C)c1nc2ccccc2n1CC(=O)NC(C)CCc1ccccc1 (configuration not stated),–,"35.5 µM [rising, partial curve, poor fit]"
O=C(CCNS(=O)(=O)c1ccc2c(c1)CCN2C(=O)C1CC1)N1CCN(c2ccccc2F)CC1,"0.0224 µM [falling, full curve, poor fit]","0.02 µM [falling, full curve, poor fit]"
O=C1C=C(NC2=CC3OC(c4ccccc4)OCC3OC2=O)CCC1 (configuration not stated),–,"11.2 µM [rising, partial curve]"
O=c1[nH]c(/C=C/c2ccc(OC(F)F)cc2)nc2c1cnn2-c1ccccc1,–,"4.47 µM [falling, partial curve, poor fit]"
Cc1onc(-c2c(F)cccc2Cl)c1C(=O)Nc1sc2c(c1C#N)CCC(C(C)(C)C)C2 (configuration not stated),–,"14.1 µM [rising, single point]"
COc1ccccc1N=CC1=C(O)CC(c2ccccc2)CC1=O (configuration not stated),–,"11.2 µM [rising, single point]"
C=CCn1c(-c2ccc3[nH]c(C)c(C)c3c2)n[nH]c1=S,–,"31.6 µM [rising, single point]"
Cc1ccc(S(=O)(=O)Nc2ccc3c(c2)CCC3)cc1,"7.08 µM [rising, partial curve, poor fit]","12.6 µM [rising, partial curve]"
COc1ccc(C(=O)CSc2nnc(Cc3ccccc3)o2)cc1,"35.5 µM [rising, single point]",–
COc1ccc(NC(=O)/C(C#N)=C/c2cc(C)n(-c3ccc(N4CCOCC4)c([N+](=O)[O-])c3)c2C)cc1,–,"12.6 µM [rising, partial curve]"
CC1=CC(C)C(C(=O)O)C(C(=O)O)C1 (configuration not stated),–,"0.631 µM [rising, partial curve]"
COC(=O)c1nnn(-c2nonc2N)c1CSc1nc2ccccc2s1,–,"22.4 µM [rising, single point]"
COc1ccc(C=C(c2nc3ccccc3s2)c2nc3ccccc3s2)cc1O,"0.0355 µM [falling, full curve, poor fit]","5.62 µM [rising, single point]"
CCc1ccc(NC(=O)CSc2nc(-c3ccccc3)c(C#N)c(=O)[nH]2)cc1,–,"0.0891 µM [falling, full curve, poor fit]"
COC(=O)c1ccc2nc(Nc3nc4ccc(F)cc4s3)sc2c1,–,"0.501 µM [rising, partial curve]"
O=C(CCN1CCN(c2ccccc2)CC1)N/N=C/c1ccccc1O,–,"25.1 µM [rising, partial curve, poor fit]"
COc1cccc(-c2c[nH]c(=O)[nH]c2=O)c1,–,"3.16 µM [rising, single point]"
CCCCn1c(N)c(N(CCC(C)C)C(=O)CSc2nnc(Nc3ccccc3)s2)c(=O)[nH]c1=O,"0.02 µM [rising, full curve, poor fit]",–
O=C(CCCSc1nc2ccccc2c(=O)[nH]1)c1ccccc1,"0.251 µM [falling, full curve, poor fit]","0.00316 µM [falling, full curve, poor fit]"

# Not a retest: entries from further up.
SMILES,AC50 [1],AC50 [2]
Cc1ccc(S(=O)(=O)Nc2ccc3c(c2)CCC3)cc1,"7.08 µM [rising, partial curve, poor fit]","12.6 µM [rising, partial curve]"
COc1ccc(C(=O)CSc2nnc(Cc3ccccc3)o2)cc1,"35.5 µM [rising, single point]",–

# (next part)

SMILES,AC50 [1],AC50 [2]
CCOc1ccc(CNC(=O)C2CCCN(S(=O)(=O)c3ccc4c(c3)CCCC(=O)N4)C2)cc1 (configuration not stated),"10 µM [falling, partial curve]",–
CC(C)(C)c1nnc2sc(SCC(=O)c3cccs3)nn2c1=O,–,"11.2 µM [rising, single point]"
O=C(c1ccc(CSc2ccccc2)cc1)N1CCCCCC1,–,"25.1 µM [rising, single point]"
COc1ccc(CNc2ccnc(-c3ccc4c(c3)OCO4)n2)c(OC)c1,"12.6 µM [falling, partial curve]",–
O=C1C(Nc2ccccc2)=C(N2CCCCC2)C(=O)c2ccccc21,"28.2 µM [falling, single point]","0.141 µM [falling, partial curve]"
Cc1ccc2c(c1)NC(=O)C(CC(=O)NCCCN1CCN(c3cc(Cl)ccc3C)CC1)O2 (configuration not stated),–,"12.6 µM [rising, partial curve]"
Cc1cccc(/C=C\c2nc3ccccc3c(=O)[nH]2)c1,–,"35.5 µM [rising, single point]"
CC(=O)c1cccc(Nc2nc(-c3cccc([N+](=O)[O-])c3)cs2)c1,"35.5 µM [rising, single point]","28.2 µM [rising, partial curve]"
CN(C)CC(O)COC(c1ccc(Cl)cc1)c1ccc(Cl)cc1 (configuration not stated),"0.0708 µM [falling, partial curve]","0.158 µM [falling, single point]"
O=c1cc(NC2CCCCC2)c2ccccc2o1,"35.5 µM [rising, single point]","35.5 µM [rising, single point]"
Cc1ccc(S(=O)(=O)C(CNC(=O)C(=O)NCCc2ccccc2)c2ccco2)cc1 (configuration not stated),"0.0251 µM [falling, full curve, poor fit]",–
Cc1ccc(C(=O)Nc2nnc(-c3ccco3)o2)cc1C,–,"22.4 µM [rising, partial curve]"
CC1(C)OC(C)(C)/C(=C/Nc2ccc(O)cc2)C1=O,–,"7.08 µM [rising, partial curve, poor fit]"
O=C(CCNS(=O)(=O)c1ccc2c(c1)CCN2C(=O)C1CC1)N1CCN(c2ccc(F)cc2)CC1,"1.26 µM [falling, full curve]","20 µM [falling, partial curve, poor fit]"
O=[N+]([O-])c1cccc(COc2ncnc3cc([N+](=O)[O-])ccc23)c1,–,"20 µM [falling, single point]"
Cc1ccccc1NC(=O)N1CCCC(c2nc(-c3ccc(C(C)C)cc3)no2)C1 (configuration not stated),"15.8 µM [rising, single point]","20 µM [rising, single point]"
O=c1c2c([nH]n1-c1ccccc1)CCCC2,"1.58 µM [rising, full curve, poor fit]",–
N#C/C(C(=S)Nc1ccccc1)=C1/NN=C(N2CCOCC2)N1c1ccccc1,–,"2 µM [rising, partial curve, poor fit]"
Cc1onc(-c2ccccc2)c1C(=O)Nc1nc(-c2ccccc2)cs1,–,"14.1 µM [rising, single point]"
CCn1c2c(c(=O)n3ncc(C(=O)Nc4cccc(Cl)c4C)c13)CN(Cc1ccc(OC)cc1)CC2,"35.5 µM [falling, single point]",–

# Structural class, the entries above containing a halogen (8)
SMILES,AC50 [1],AC50 [2]
O=C(CCNS(=O)(=O)c1ccc2c(c1)CCN2C(=O)C1CC1)N1CCN(c2ccccc2F)CC1,"0.0224 µM [falling, full curve, poor fit]","0.02 µM [falling, full curve, poor fit]"
O=c1[nH]c(/C=C/c2ccc(OC(F)F)cc2)nc2c1cnn2-c1ccccc1,–,"4.47 µM [falling, partial curve, poor fit]"
Cc1onc(-c2c(F)cccc2Cl)c1C(=O)Nc1sc2c(c1C#N)CCC(C(C)(C)C)C2 (configuration not stated),–,"14.1 µM [rising, single point]"
COC(=O)c1ccc2nc(Nc3nc4ccc(F)cc4s3)sc2c1,–,"0.501 µM [rising, partial curve]"
Cc1ccc2c(c1)NC(=O)C(CC(=O)NCCCN1CCN(c3cc(Cl)ccc3C)CC1)O2 (configuration not stated),–,"12.6 µM [rising, partial curve]"
CN(C)CC(O)COC(c1ccc(Cl)cc1)c1ccc(Cl)cc1 (configuration not stated),"0.0708 µM [falling, partial curve]","0.158 µM [falling, single point]"
O=C(CCNS(=O)(=O)c1ccc2c(c1)CCN2C(=O)C1CC1)N1CCN(c2ccc(F)cc2)CC1,"1.26 µM [falling, full curve]","20 µM [falling, partial curve, poor fit]"
CCn1c2c(c(=O)n3ncc(C(=O)Nc4cccc(Cl)c4C)c13)CN(Cc1ccc(OC)cc1)CC2,"35.5 µM [falling, single point]",–

# Remaining list, next part:

SMILES,AC50 [1],AC50 [2]
Cc1ccccc1OCC(O)Cn1c(NCc2ccco2)nc2c1c(=O)n(C)c(=O)n2C (configuration not stated),"25.1 µM [rising, single point]","12.6 µM [rising, single point]"
Cc1ccc(-c2csc(-c3c[nH]c4ccccc34)n2)c(C)c1,"35.5 µM [rising, single point]",–
Oc1[nH]c2ccccc2c1N=NC(=S)NCC1CCCO1 (configuration not stated),–,"17.8 µM [rising, partial curve]"
O=S1(=O)Nc2c(ccc3cccnc23)-c2ccccc21,–,"0.794 µM [rising, full curve]"
COc1ccc(C(=O)/C=C/c2ccc(OC)c(CN3CCOCC3)c2)cc1,"35.5 µM [falling, single point]",–
COc1cccc(-c2noc(C3CCCN(S(=O)(=O)c4cccc(Cl)c4C)C3)n2)c1 (configuration not stated),"35.5 µM [rising, single point]","25.1 µM [rising, partial curve]"
Cc1ccc(NC(=O)c2ccc(-n3c(C)nnc3C)cc2)cc1F,"35.5 µM [falling, partial curve, poor fit]",–
Cc1cc2ccccc2c(=O)n1CC(=O)NCC(=O)N1CCN(c2ccccc2F)CC1,–,"6.31 µM [falling, single point]"
S=C(NNc1ccnc2cc(Cl)ccc12)Nc1ccccc1Cl,"5.01 µM [rising, partial curve, poor fit]","12.6 µM [rising, partial curve]"
CCOC(=O)c1c(C)nc(C(Cl)(Cl)Cl)nc1N,–,"2 µM [rising, full curve, poor fit]"
N#Cc1ccc(C(=O)Nc2ccc(S(=O)(=O)NC3=NCCCCC3)cc2)cc1,–,"14.1 µM [rising, single point]"
O=C(NCc1cccs1)c1cc(-c2ccccc2)nc2ccccc12,–,"20 µM [rising, single point]"
CCCc1nc(SCc2cc(=O)c3ccc(C)c(C)c3[nH]2)n[nH]1,"0.282 µM [rising, full curve, poor fit]",–
COc1ccc(/C=N\NC(=O)c2cccc(Br)c2)c(OC)c1,"0.0447 µM [rising, full curve, poor fit]",–
COc1ccc(C(CNC(=O)COc2ccc(Br)cc2F)N2CCCC2)cc1 (configuration not stated),–,"0.398 µM [rising, partial curve]"
O=C(Nc1cccs1)Nc1ccc(Br)cc1F,–,"10 µM [rising, partial curve, poor fit]"
O=C(CCC(=O)N(CC(=O)NC1CCCC1)C1CCCC1)Nc1ccccn1,–,"2.51 µM [falling, partial curve]"
CCOc1ccc(N2CC(NC(=O)c3ccc(S(=O)(=O)N4CCCCC4)cc3)CC2=O)cc1 (configuration not stated),–,"10 µM [falling, partial curve, poor fit]"

# — PubChem BioAssay AID1487 (National Center for Advancing Translational Sciences (NCATS), 2009)
